This is an account of results in article PMC7819943, “Rice protein-binding microarrays: a tool to detect cis-acting elements near promoter regions in rice”.

The list shows a part of the results.

The assay addresses T1, OsSMF1 (Oryza sativa, UniProt Q6ZLB0 1-436).
T1 sequence: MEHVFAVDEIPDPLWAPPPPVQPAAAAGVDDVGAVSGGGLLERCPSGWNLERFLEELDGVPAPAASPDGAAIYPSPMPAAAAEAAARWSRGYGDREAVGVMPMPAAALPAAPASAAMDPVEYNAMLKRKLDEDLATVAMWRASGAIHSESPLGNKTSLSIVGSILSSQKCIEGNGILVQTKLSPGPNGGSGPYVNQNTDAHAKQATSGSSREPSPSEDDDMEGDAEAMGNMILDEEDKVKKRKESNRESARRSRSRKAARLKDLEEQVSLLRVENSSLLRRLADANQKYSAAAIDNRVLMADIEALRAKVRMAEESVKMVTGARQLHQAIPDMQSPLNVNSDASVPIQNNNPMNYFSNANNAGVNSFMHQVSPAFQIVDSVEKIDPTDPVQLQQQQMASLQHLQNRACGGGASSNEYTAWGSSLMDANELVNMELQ
Description: protein-binding microarray (RPBM); PBS, 2% BSA, 51.3 ng/ul salmon testes DNA, 50 uM zinc acetate, 200 nM TF, 25 C, 1 h; high values mean tight binding. To be noted: protein: recombinant; tags: N-terminal polyhistidine and DsRed monomer fusion (pET32a); chain copies: 2; label: CyDye5-dUTP incorporated in the synthesized complementary strand; 3' TTTTT single-stranded linker to array surface; dsDNA, one strand shown. The essentials:
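Polyhistidine-tagged DsRed fusions of transcription factors, joined at the N-terminus, were expressed in E. coli BL21-CodonPlus and isolated on Ni–NTA. They were incubated at 200 nM for 1 h at 25 °C on a custom Agilent array, double-stranded and BSA-blocked, in PBS with 2% BSA, salmon testes DNA and 50 µM zinc acetate. The binding signal is per-feature fluorescence intensity (arbitrary units) read on an Axon 4000B scanner after washing.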
On to “TACGTGTGAGTCTTCAACCGTCCACATCAGCGTGGAGAAGCGGAGTCACCTAGTGCAG”, for which the binding signal was 13900 fluorescence intensity (a.u.).

Consider “TTGAATAGTGAGTCATGCAAACGGTTCCTTCTCAAACCTACGGAGTCACCTAGTGCAG”, for which the binding signal was 8160 fluorescence intensity (a.u.).

For “GCCGCCCAAGAAGAGGACACGCAGGACGTACAGCCGTGGCCGGAGTCACCTAGTGCAG”, the binding signal is 3470 fluorescence intensity (a.u.).

In the case of “TATCAAATTTCTTTTCGAGTCCTACCAATCGACGTGTATCCGGAGTCACCTAGTGCAG”, the binding signal was 3710 fluorescence intensity (a.u.).

In the case of “ACCAGCAGCCATCACCGCATGCGTTACTACGTGTGTGCATCGGAGTCACCTAGTGCAG”, the binding signal was 3420 fluorescence intensity (a.u.).

As for “TTTGCTGCATCACCATTGTCATCCATATATTCCATATTCCCGGAGTCACCTAGTGCAG”, the binding signal is 5740 fluorescence intensity (a.u.).

For the sequence “CTTTAAACTTGCCAACATGCCACGTCAGCAGAAACCACTACGGAGTCACCTAGTGCAG”, the binding signal is 17000 fluorescence intensity (a.u.).

For “CATGCTGAGTCAATAGCTTTCTTTGGTGGTGGATCAAGGGCGGAGTCACCTAGTGCAG”, the binding signal was 10700 fluorescence intensity (a.u.).

Turning to “GCGGAGGAGCGGATAAGCCAAGCTCATGGCCTCCTCCGCGCGGAGTCACCTAGTGCAG”, the binding signal was 20200 fluorescence intensity (a.u.).

As for “CACTGCTTTCCCTCCCACCTCACCACACACCACGCCACTCCGGAGTCACCTAGTGCAG”, the binding signal was 4960 fluorescence intensity (a.u.).

With “ACTTTATGGCTAAATCCCGGGCGTGACTGCGTGGAGCATCCGGAGTCACCTAGTGCAG”, the binding signal is 3870 fluorescence intensity (a.u.).

Take “AGCCTGCCTCTCCCGGTGCCACGCAGCCTCGGAACCCACACGGAGTCACCTAGTGCAG”: the binding signal is 3540 fluorescence intensity (a.u.).

As for “AACCCTCCCCTCCCGTGGATCATCGCCGCCGCCGCCGGTACGGAGTCACCTAGTGCAG”, the binding signal is 3230 fluorescence intensity (a.u.).

On to “GCTCTCTCTTCTCAACTATGAACCCTATTCCACGAAAGCACGGAGTCACCTAGTGCAG”, for which the binding signal was 3430 fluorescence intensity (a.u.).

With “CTAGCCGCCCGCGCCGCCACCTCGCCGGCCTCTAGCCGCCCGGAGTCACCTAGTGCAG”, the binding signal was 3700 fluorescence intensity (a.u.).

“CCTCGCAACAAAACCGGAGCCACTCGAGCGAGTGAAAACGCGGAGTCACCTAGTGCAG”: the binding signal is 4920 fluorescence intensity (a.u.).

Turning to “CATCAAACAACCAGTTTCTTAGGATGTCTTTTAACCGTGACGGAGTCACCTAGTGCAG”, the binding signal was 23200 fluorescence intensity (a.u.).

With “TACCGTCCCTCAACTTTATGTCGAGTCTATATGACATACCCGGAGTCACCTAGTGCAG”, the binding signal is 4220 fluorescence intensity (a.u.).

Turning to “CCCCGCCGCCGTCCATCGCCGCCGCCGCGTCACTCTTGCACGGAGTCACCTAGTGCAG”, the binding signal was 10400 fluorescence intensity (a.u.).

Take “TCCATCCCAAAGCTCCACTCCACGTACGCCTCGGGATTTGCGGAGTCACCTAGTGCAG”: the binding signal was 4680 fluorescence intensity (a.u.).

As to “GCACGCTCAATTACCATACACATCAGCTAACAAGTAATAACGGAGTCACCTAGTGCAG”, the binding signal was 3140 fluorescence intensity (a.u.).

As to “ATTTATTGGTGCTGACCATCTAGAGTGAGTTGATGCCTTGCGGAGTCACCTAGTGCAG”, the binding signal is 3670 fluorescence intensity (a.u.).

As to “GTGGGTGTATAGACCAAGCTCACGTGGCCGCCTCGAGCGTCGGAGTCACCTAGTGCAG”, the binding signal is 5100 fluorescence intensity (a.u.).

As for “CCGCACGAAGCCACGTACACAATTGCGTGACGGAACCCAACGGAGTCACCTAGTGCAG”, the binding signal was 6320 fluorescence intensity (a.u.).

“GCTCATTTATTGCCGGTTGGTACGCATCACTTGAGCGTTTCGGAGTCACCTAGTGCAG”: the binding signal was 3860 fluorescence intensity (a.u.).

As to “AATTATTTGTTTATTCCTTATGACTAGATAGTAAACATATCGGAGTCACCTAGTGCAG”, the binding signal was 4290 fluorescence intensity (a.u.).

“TTCTTCCCCGAGCAGCCAGCGCTGCCGTCACTGCTCTGCTCGGAGTCACCTAGTGCAG”: the binding signal is 3460 fluorescence intensity (a.u.).

As for “CCATGCCACATACGGATCTATGTAAGGGTCATTGTCTTCCCGGAGTCACCTAGTGCAG”, the binding signal was 3460 fluorescence intensity (a.u.).

Regarding “CGTCGCCTCGCCTCGTCACGGCCGCCTCCGCCATCGCCTCCGGAGTCACCTAGTGCAG”, the binding signal was 6060 fluorescence intensity (a.u.).

Take “GGCCCCTGCGCTTGCGTAGGTGAAGCCTGCCCTGTGTAAGCGGAGTCACCTAGTGCAG”: the binding signal was 3210 fluorescence intensity (a.u.).

Regarding “ACACCCAACCCGATCCACATCATCCCCAAACCTCCCTTCCCGGAGTCACCTAGTGCAG”, the binding signal is 6200 fluorescence intensity (a.u.).

As to “AAGTTTTGCACATACTTTTCTATAATTATGTCATCACATCCGGAGTCACCTAGTGCAG”, the binding signal was 4210 fluorescence intensity (a.u.).

Regarding “TGGGTGATTGATTAGTACTACTGCTGCATCTGCACTGCATCGGAGTCACCTAGTGCAG”, the binding signal is 18800 fluorescence intensity (a.u.).

For the sequence “TAGTCGATGGGCTGGATGTGGGACTGAGCGTTGGGCCGGGCGGAGTCACCTAGTGCAG”, the binding signal is 3760 fluorescence intensity (a.u.).

As to “AAGAAGCTAGCCACGTAAGATAATCCGCGCAATAAGTCAGCGGAGTCACCTAGTGCAG”, the binding signal was 10000 fluorescence intensity (a.u.).

Regarding “TGTGGAATTGGTGAAGAACCTAGTCAGTAGTCACCATCGACGGAGTCACCTAGTGCAG”, the binding signal is 3770 fluorescence intensity (a.u.).

“CCCTCCACCTCACTCGCCCACGTGGCGGGACGCATCTGGCCGGAGTCACCTAGTGCAG”: the binding signal is 13600 fluorescence intensity (a.u.).

Turning to “GCCTCGTCGTAGTCAACACCTTGACGCGTCGGACAAATCACGGAGTCACCTAGTGCAG”, the binding signal was 4250 fluorescence intensity (a.u.).

Take “TCGGATGAGTGGCTTATAGATTTGAATTTGATGGTCTGCTCGGAGTCACCTAGTGCAG”: the binding signal is 3490 fluorescence intensity (a.u.).

“CGATCATGCCGTGACGTACGCTTTGAAACTCGCAGCTAGCCGGAGTCACCTAGTGCAG”: the binding signal is 5040 fluorescence intensity (a.u.).

Take “TGTCCGTCACGAAATCTCCAATCGCGTCATCAGCTATACCCGGAGTCACCTAGTGCAG”: the binding signal is 11100 fluorescence intensity (a.u.).

Consider “GGTCAAATCCCACACACACGCCGTAGGATCCAGTCAATGGCGGAGTCACCTAGTGCAG”, for which the binding signal is 3200 fluorescence intensity (a.u.).

As for “AAGAGGTGGAGTTGAGTTTAAACGGCTACACAACTCCACTCGGAGTCACCTAGTGCAG”, the binding signal was 3210 fluorescence intensity (a.u.).

“CGGTGGGATTGGTTTAACGTGGGTGCTAATGGGGAAGCTACGGAGTCACCTAGTGCAG”: the binding signal was 4620 fluorescence intensity (a.u.).

As to “GATCATCGTCCTATTTGGCTTTCGGCGGCCAGCCCGCCTCCGGAGTCACCTAGTGCAG”, the binding signal was 3620 fluorescence intensity (a.u.).

For the sequence “TTCTCCAGCATCGTATACGTGTCTAATTGTGATTTTATATCGGAGTCACCTAGTGCAG”, the binding signal was 3810 fluorescence intensity (a.u.).

For “CAAAGGAACACATCTGGGTCATCAGACAACTCAATAGAGTCGGAGTCACCTAGTGCAG”, the binding signal was 43000 fluorescence intensity (a.u.).

In the case of “ACACATGGAACTTGTGCCATATATCTGTAGGTGTGAAAATCGGAGTCACCTAGTGCAG”, the binding signal is 41300 fluorescence intensity (a.u.).

Take “GGTGCGTGTTCGGGATGGGGTTCGGGTTCAATTTCAGGTTCGGAGTCACCTAGTGCAG”: the binding signal is 3540 fluorescence intensity (a.u.).

On to “GCCTCGAACGACGTGTGGACGCGATGGAAGATGCGTTCTGCGGAGTCACCTAGTGCAG”, for which the binding signal was 3210 fluorescence intensity (a.u.).

For the sequence “AAAGCGTTCCGCGGCGCCGCCGTGGCGTCCGGCGTCCGGCCGGAGTCACCTAGTGCAG”, the binding signal is 3900 fluorescence intensity (a.u.).

With “GTGTACACCTCCCTCAATATAAACTTAGATACCCACGTCACGGAGTCACCTAGTGCAG”, the binding signal was 4410 fluorescence intensity (a.u.).

In the case of “CCACTACCACTACAACTGTATCCTACTGTGACACGCTCCACGGAGTCACCTAGTGCAG”, the binding signal is 3260 fluorescence intensity (a.u.).

As to “GGTTGCGATGCTGTTATTGTCATGCCTGTGACAACGCCTGCGGAGTCACCTAGTGCAG”, the binding signal is 3810 fluorescence intensity (a.u.).
